Data reported in PMC8231827, “A Novel Protein–Protein Interaction between RSK3 and IκBα and a New Binding Inhibitor That Suppresses Breast Cancer Tumorigenesis” (Cancers, 2021).
Results are given in words; binding and its absence hold for the method and conditions named. For some of these results: In cells and extracts the contact can be indirect. Some binding calls cover weakened binding; strength is not graded here.

The chains behind the UniProt entries cited, without tags or fusion partners. Where a name states a change or a piece, a line headed by the entry shows the natural chain unless it says otherwise.
UniProt Q15349: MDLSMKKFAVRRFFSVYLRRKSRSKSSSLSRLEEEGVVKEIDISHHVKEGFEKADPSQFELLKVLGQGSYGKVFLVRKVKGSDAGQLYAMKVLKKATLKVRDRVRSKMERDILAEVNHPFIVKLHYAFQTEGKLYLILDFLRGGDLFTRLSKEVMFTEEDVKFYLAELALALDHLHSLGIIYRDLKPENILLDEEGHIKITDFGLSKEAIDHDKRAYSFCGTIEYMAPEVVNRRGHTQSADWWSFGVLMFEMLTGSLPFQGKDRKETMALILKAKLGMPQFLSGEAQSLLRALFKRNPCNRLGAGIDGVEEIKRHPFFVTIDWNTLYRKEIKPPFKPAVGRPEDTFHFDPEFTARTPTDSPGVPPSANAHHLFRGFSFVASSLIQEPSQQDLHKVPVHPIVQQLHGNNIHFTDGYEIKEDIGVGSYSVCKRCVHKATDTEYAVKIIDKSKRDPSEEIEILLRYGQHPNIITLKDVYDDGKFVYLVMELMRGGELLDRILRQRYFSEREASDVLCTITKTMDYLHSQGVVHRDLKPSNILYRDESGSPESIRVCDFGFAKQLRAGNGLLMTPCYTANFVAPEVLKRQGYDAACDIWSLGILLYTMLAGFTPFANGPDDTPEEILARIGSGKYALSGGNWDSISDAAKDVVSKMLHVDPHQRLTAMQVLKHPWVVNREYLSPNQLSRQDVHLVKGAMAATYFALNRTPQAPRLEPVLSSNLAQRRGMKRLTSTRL
UniProt P25963: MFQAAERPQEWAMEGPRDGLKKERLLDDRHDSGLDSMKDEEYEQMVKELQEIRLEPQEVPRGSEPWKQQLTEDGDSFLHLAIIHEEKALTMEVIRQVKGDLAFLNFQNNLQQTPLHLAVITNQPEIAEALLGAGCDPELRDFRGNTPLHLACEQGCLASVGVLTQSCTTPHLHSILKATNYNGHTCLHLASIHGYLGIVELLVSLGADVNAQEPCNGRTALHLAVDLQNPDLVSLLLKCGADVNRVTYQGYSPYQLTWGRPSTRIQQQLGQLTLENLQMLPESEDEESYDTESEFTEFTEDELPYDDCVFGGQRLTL

How the values were obtained:
[1] = target: Myc/His-tagged RSK3 (UniProt Q15349); assay: co-IP; HEK293T co-transfected with Myc/His-RSK3 and GFP-IκBα (WT or DM1-4); RIPA lysate, immunoprecipitated with anti-RSK3 antibody and protein G agarose, blotted with anti-GFP antibody
[2] = target: PKCδ-mRFP-RSK3 (UniProt Q15349); assay: CUPID (co-translocation of a GFP-tagged prey to the membrane with a PKCδ-mRFP-fused bait after PMA, confocal microscopy); bait and prey plasmids co-transfected into HEK293T cells; PMA 500 nM by the methods (0.1 nM by the legend of Figure 1A); screen of about 500 GFP-tagged kinases and confirmation with both tag orientations
[3] = target: PKCδ-mRFP-IκBα (UniProt P25963); assay: as above
[4] = target: GFP-tagged RSK3 (UniProt Q15349); assay: co-IP; HEK293T co-transfected with Myc/His-IκBα and pAC-GFP-RSK3 (WT or DM1-3); immunoprecipitated with anti-RSK3 or control IgG, blotted with anti-IκBα antibody; in Figure 4E also with RSK3I (0.1, 0.5, 1 and 10 μM) or DMSO

GFP-tagged IκBα (from UniProt P25963 1-317)
binding [1]: binds | binding [2]: binds

GFP-tagged RSK3 (from UniProt Q15349 1-733)
binding [3]: binds

Myc/His-IκBα (from UniProt P25963 1-317)
binding [4]: binds
